Test results: patent US20110144312A1
These are yes or no findings as the source states them, for the method shown. For part of these data: Binding can be weak; no strength is given.

Experiments:
[1] = target: chimpanzee IL-10Rα on PBMC (chimpanzee); assay: flow cytometry on chimpanzee PBMC
[2] = target: chimpanzee IL-10Rα on PBMC (chimpanzee); assay: flow cytometry on chimpanzee PBMC, lymphocyte gate; competitor: recombinant human IL-10Rα [B]
[3] = target: rat IL-10Rα on splenocytes (rat); assay: flow cytometry on splenocytes

B1: 136D29 (antibody, V domains shown)
VH: QVQLVQSGAEVKKPGASVKVSCKVSGFTLTELSMHWVRQAPGKGLEWMGGFDPDDGETIYAQKFQGRVSMTEDTSTDTAYMELSSLRSEDTAVYYCATGGYYGPVGMDVWGQGTTVTVSS
VL: DIQMTQSPSSLSASVGDRVTITCRASQGISIWLAWYQQKPEKAPKSLIYAASSLQSGVPSRFSGSGSGTDFTLTISSLQPEDFATYYCQQYNSYPLTFGGGTKVEIK
binding [1]: binds | binding [2]: binds | binding [3]: no binding
